In the supplement of paper PMC6411743 one finds NP40-soluble protein abundance data, which are given here for 38 targets.

Chains of the proteins cited; added tags and fusions are not shown. Lines headed by an entry give the natural chain unless they say otherwise; changes in a name come on top.
UniProt Q6P1Q9: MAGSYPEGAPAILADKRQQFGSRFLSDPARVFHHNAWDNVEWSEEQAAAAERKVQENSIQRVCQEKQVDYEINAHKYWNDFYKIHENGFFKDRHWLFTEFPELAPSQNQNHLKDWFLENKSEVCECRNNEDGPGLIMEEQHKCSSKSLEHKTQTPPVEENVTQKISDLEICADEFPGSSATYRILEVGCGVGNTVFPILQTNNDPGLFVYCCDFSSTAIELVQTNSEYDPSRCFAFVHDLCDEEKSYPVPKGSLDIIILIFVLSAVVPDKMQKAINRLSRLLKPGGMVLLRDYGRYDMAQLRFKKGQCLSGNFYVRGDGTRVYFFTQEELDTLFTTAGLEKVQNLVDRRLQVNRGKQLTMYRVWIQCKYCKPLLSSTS
UniProt Q68D91: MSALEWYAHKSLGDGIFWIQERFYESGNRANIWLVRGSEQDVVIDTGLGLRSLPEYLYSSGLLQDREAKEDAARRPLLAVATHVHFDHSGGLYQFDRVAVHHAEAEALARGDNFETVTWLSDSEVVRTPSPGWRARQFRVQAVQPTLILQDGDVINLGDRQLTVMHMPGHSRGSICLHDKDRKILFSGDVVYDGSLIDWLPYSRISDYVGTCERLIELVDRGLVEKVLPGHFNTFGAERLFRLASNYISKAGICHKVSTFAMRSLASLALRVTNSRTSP
UniProt Q5VST6: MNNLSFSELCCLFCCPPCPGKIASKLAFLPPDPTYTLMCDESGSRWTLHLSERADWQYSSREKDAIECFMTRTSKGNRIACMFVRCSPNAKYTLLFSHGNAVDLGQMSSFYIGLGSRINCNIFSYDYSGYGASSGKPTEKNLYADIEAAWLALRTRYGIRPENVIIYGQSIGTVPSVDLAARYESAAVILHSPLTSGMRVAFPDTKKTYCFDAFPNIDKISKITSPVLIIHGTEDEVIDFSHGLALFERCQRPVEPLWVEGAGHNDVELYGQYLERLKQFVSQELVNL
UniProt Q7Z434: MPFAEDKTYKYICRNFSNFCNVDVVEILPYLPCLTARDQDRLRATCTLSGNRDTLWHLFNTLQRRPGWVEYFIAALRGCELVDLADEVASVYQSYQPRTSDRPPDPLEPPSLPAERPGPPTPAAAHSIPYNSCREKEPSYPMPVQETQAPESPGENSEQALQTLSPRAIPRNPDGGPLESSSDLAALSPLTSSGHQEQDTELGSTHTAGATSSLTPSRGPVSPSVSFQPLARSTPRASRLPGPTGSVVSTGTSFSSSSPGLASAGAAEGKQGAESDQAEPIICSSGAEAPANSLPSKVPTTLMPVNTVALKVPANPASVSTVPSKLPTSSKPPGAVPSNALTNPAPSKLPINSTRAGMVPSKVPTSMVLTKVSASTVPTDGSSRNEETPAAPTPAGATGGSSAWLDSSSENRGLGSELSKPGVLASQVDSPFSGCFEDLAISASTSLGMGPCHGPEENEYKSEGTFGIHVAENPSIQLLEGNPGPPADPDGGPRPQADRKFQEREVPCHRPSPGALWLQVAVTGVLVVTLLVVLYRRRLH
UniProt Q6UB99: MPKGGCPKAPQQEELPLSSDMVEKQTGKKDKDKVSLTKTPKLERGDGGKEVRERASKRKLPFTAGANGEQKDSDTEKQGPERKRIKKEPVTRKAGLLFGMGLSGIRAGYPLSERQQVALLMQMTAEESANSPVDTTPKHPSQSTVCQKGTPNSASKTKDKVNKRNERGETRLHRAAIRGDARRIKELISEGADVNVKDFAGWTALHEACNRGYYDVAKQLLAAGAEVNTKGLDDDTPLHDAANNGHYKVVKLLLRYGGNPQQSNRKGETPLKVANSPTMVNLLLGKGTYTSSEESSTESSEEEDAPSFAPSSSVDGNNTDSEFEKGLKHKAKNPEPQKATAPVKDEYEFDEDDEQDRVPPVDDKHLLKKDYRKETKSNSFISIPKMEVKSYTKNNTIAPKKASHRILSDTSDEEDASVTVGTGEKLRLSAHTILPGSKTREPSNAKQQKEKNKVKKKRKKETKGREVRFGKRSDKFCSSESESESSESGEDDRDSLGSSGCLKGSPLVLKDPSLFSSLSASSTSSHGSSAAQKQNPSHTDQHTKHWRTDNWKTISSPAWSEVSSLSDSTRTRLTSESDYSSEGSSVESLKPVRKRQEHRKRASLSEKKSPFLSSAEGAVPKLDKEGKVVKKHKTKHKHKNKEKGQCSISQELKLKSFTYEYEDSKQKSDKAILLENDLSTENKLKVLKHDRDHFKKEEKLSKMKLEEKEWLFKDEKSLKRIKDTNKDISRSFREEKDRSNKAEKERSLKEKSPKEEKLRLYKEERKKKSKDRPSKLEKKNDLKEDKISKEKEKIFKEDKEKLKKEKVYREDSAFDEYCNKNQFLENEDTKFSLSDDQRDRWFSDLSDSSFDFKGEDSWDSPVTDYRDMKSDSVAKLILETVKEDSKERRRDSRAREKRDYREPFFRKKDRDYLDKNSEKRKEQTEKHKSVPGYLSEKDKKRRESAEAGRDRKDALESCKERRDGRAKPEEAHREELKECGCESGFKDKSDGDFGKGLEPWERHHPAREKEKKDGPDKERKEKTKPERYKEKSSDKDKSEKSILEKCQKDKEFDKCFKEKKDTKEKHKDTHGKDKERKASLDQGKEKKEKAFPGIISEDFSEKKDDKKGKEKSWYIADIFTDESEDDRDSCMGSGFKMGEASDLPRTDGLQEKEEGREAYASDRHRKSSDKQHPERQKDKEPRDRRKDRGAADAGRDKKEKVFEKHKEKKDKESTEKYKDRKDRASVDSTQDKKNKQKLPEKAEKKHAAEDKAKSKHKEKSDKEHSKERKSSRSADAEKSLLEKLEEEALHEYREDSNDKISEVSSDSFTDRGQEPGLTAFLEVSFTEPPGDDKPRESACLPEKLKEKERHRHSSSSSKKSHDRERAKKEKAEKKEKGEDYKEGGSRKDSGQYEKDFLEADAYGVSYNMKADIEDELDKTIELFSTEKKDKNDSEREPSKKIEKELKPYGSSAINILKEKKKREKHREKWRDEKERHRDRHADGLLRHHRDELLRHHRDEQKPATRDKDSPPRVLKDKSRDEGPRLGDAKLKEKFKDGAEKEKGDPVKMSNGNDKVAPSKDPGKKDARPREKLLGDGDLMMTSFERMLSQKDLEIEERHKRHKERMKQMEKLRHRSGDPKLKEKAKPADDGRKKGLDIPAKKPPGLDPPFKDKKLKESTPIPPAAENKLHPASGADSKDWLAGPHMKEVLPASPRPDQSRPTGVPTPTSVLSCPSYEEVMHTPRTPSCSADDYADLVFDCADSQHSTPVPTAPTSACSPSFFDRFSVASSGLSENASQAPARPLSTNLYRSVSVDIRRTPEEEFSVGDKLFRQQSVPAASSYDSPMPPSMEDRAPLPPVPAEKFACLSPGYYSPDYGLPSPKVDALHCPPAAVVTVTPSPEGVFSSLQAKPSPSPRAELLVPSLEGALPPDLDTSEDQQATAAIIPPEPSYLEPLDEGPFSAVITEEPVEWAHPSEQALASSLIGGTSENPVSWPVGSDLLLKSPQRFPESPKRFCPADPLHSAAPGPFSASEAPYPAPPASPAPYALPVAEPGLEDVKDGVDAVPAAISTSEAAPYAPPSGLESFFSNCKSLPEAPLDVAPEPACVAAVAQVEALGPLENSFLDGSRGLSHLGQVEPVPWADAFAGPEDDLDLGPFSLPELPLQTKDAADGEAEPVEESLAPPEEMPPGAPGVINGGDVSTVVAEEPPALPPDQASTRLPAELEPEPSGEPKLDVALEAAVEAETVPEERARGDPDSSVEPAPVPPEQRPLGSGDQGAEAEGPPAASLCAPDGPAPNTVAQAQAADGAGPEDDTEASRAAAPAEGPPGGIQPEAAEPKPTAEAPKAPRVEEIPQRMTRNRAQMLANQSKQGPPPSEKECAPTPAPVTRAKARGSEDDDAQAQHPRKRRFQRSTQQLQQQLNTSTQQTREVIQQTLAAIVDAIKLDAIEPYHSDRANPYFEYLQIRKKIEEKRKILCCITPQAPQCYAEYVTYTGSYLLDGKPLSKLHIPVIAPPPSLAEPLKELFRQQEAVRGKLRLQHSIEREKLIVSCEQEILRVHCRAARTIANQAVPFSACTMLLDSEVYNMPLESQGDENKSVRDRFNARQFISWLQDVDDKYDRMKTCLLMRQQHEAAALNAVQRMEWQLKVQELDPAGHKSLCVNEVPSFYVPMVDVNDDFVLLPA
UniProt Q69YN4: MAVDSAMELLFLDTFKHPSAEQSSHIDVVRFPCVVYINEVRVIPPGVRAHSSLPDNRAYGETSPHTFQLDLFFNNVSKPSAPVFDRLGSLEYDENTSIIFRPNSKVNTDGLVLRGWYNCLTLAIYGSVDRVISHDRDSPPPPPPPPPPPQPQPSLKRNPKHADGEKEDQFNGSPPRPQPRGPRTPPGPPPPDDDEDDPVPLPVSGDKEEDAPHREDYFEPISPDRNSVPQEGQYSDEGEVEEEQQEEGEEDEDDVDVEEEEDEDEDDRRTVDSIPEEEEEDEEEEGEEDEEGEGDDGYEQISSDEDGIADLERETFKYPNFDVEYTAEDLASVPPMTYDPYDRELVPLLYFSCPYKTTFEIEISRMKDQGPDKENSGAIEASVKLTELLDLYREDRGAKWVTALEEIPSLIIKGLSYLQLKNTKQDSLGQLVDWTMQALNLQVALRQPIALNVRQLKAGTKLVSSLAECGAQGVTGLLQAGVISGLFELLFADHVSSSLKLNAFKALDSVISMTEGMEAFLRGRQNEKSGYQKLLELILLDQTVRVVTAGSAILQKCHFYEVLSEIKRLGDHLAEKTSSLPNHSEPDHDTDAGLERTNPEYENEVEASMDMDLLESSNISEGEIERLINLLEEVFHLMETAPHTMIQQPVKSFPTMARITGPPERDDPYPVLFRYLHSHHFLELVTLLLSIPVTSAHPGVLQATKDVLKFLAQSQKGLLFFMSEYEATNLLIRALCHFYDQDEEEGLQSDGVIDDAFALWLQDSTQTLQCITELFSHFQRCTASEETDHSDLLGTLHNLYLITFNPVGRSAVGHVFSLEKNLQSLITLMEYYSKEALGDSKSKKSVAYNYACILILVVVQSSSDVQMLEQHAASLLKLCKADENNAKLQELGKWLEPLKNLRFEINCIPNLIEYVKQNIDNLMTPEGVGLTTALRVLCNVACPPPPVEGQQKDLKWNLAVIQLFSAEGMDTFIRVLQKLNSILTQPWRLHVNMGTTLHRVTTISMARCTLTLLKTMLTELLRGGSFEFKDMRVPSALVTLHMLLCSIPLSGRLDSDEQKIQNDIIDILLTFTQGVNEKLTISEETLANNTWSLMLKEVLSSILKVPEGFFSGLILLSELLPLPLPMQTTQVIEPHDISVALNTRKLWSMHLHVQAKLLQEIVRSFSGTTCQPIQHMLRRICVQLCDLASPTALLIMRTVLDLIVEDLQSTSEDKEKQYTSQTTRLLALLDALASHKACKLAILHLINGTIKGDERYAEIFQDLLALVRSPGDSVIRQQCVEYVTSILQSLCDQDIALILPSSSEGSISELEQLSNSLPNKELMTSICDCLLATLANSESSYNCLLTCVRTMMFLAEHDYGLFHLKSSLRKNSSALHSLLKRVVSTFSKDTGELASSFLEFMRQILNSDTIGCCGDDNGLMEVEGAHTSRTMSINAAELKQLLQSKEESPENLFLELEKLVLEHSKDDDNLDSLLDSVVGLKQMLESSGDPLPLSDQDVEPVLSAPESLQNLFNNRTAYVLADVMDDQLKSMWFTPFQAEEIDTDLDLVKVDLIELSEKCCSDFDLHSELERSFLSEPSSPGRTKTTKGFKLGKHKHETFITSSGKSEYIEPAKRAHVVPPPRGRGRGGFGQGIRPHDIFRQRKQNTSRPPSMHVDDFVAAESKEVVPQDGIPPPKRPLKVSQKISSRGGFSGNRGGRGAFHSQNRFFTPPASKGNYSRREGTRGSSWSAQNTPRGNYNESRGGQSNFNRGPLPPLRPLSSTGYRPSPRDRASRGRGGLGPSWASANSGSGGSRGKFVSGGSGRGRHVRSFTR
UniProt Q6PI26: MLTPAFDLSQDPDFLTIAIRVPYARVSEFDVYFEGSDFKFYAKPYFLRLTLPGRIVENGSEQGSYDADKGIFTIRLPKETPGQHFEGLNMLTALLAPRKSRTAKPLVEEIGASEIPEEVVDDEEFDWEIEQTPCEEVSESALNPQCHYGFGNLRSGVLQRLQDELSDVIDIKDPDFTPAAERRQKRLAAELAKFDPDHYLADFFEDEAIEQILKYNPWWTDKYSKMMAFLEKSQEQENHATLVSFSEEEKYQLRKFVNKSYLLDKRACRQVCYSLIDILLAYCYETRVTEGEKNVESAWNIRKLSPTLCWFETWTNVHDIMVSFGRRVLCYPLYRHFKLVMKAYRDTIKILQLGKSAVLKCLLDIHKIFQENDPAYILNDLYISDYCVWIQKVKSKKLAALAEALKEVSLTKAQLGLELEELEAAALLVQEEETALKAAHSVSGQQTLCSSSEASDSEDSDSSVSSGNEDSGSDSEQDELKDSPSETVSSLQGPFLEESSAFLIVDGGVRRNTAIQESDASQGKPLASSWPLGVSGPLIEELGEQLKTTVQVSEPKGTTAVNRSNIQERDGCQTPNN

± gives the standard deviation of the averaged measurements. Only a part is listed here, and it is no random draw. Most values lie at the level of the controls, where differences are scatter.

Compound in one assay: Nc1ncnc2c1ncn2[C@@H]1O[C@H](COP(=O)(O)OP(=O)(O)NP(=O)(O)O)[C@@H](O)[C@H]1O [adenylyl imidodiphosphate]
Description: NP40-soluble protein abundance relative to vehicle (solubility fold change) (ratio); higher = more soluble protein in presence of AMP-PNP. As to conditions: concentration: 0.1mM. The gist of the method:
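Across three independent experiments, values are fold changes against the detergent-processed vehicle for each replicate, based on vsn-normalised intensities. The samples were Jurkat crude lysate treated with eight concentrations (0.1 to 10 mM) for 10 min at room temperature and then 3 min at 37 °C. Lysate was solubilised with 0.8% NP40 and benzonase, ultracentrifuged, and the supernatant analysed by TMT-labelled LC-MS/MS.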
Take TRIM65 (UniProt Q6PJ69): the NP40-soluble protein abundance came to 1.029 ± 0.0085.
On the same count and under the same terms, the same measure for CYFIP1 (UniProt Q7L576): 1.07 ± 0.074; for EEPD1 (UniProt Q7L9B9): 0.989 ± 0.034.
The same measure, in the same setting: the same measure for UniProt Q7Z2T5: 1.02 ± 0.03; for UniProt Q7Z5L9 and related entries: 1.01 ± 0.028.
On the same count and under the same terms, the same measure for UniProt Q6NT76 and related entries: 1 ± 0.027.
Consider UniProt Q6PHR2 and related entries, for which the NP40-soluble protein abundance came out at 0.984 ± 0.035.
The same measure, in the same setting: the result for UniProt Q6P1J9 reads 1 ± 0.025.
On to UniProt Q6SJ93 and related entries, for which the NP40-soluble protein abundance amounted to 0.972 ± 0.022.
METTL2B (UniProt Q6P1Q9): the NP40-soluble protein abundance amounted to 1.003 ± 0.0024.
On the same count and under the same terms, the same measure for UniProt Q6QNY1 and related entries: 0.988 ± 0.034.

Still in this assay, the particulars now being: concentration: 0.5mM.
In the case of UniProt Q6P2C8 and related entries, the NP40-soluble protein abundance turned out to be 1.02 ± 0.037.
On the same count and under the same terms, the same measure for UniProt Q5XUX1 and related entries: 1 ± 0.034.
Still for that read-out and setting: the result for UniProt Q6GYQ0 and related entries reads 0.962 ± 0.034; that for UniProt Q7Z392, 0.992 ± 0.052; that for MYSM1 (UniProt Q5VVJ2), 0.948 ± 0.088.
The same measure, in the same setting: the result for FAHD1 (UniProt Q6P587) reads 0.983 ± 0.013.
MED13L (UniProt Q71F56): the NP40-soluble protein abundance stood at 1.01 ± 0.025.
Still for that read-out and setting: the result for UniProt Q6GPH4 and related entries reads 0.98 ± 0.051; that for MBLAC2 (UniProt Q68D91), 0.994 ± 0.061.
The same measure, in the same setting: the same measure for UniProt Q5VST6: 1.02 ± 0.072; for MICAL3 (UniProt Q7RTP6): 0.989 ± 0.024; for C16orf87 (UniProt Q6PH81): 0.982 ± 0.055.
Consider UniProt Q6PCB8 and related entries, for which the NP40-soluble protein abundance was found to be 1.02 ± 0.049.
Regarding MON1B (UniProt Q7L1V2), the NP40-soluble protein abundance was found to be 1.05 ± 0.021.
Same read-out and setting: the same measure for UniProt Q7Z434 and related entries: 0.98 ± 0.018.
Same read-out and setting: the result for UniProt Q7L2E3-2 reads 1.03 ± 0.027.
On the same count and under the same terms, the same measure for UniProt Q6R327 and related entries: 0.9898 ± 0.0068; for DUS1L (UniProt Q6P1R4): 1.02 ± 0.04; for UniProt Q6GMV3: 0.99 ± 0.062.
As for MEPCE (UniProt Q7L2J0), the NP40-soluble protein abundance came out at 1.03 ± 0.064.
Still for that read-out and setting: the same measure for UniProt Q7Z3U7 and related entries: 0.992 ± 0.053; for ANKRD11 (UniProt Q6UB99): 1.02 ± 0.047; for UniProt Q5VT52 and related entries: 1.01 ± 0.042.
Still for that read-out and setting: the result for APBB1IP (UniProt Q7Z5R6) reads 0.974 ± 0.019; that for UniProt Q69YN4, 1 ± 0.06; that for UniProt Q6PI26 and related entries, 1.02 ± 0.011.
Still for that read-out and setting: the same measure for FASTKD5 (UniProt Q7L8L6): 0.971 ± 0.012.
For TRIM65 (UniProt Q6PJ69), the NP40-soluble protein abundance stood at 1 ± 0.029.
Still for that read-out and setting: the same measure for CYFIP1 (UniProt Q7L576): 1 ± 0.13; for EEPD1 (UniProt Q7L9B9): 0.973 ± 0.05; for UniProt Q7Z2T5: 1.02 ± 0.029.
Same read-out and setting: the result for UniProt Q7Z5L9 and related entries reads 0.989 ± 0.038.
Same read-out and setting: the result for UniProt Q6NT76 and related entries reads 1 ± 0.05; that for UniProt Q6PHR2 and related entries, 1 ± 0.021; that for UniProt Q6P1J9, 0.982 ± 0.031.
In the case of UniProt Q6SJ93 and related entries, the NP40-soluble protein abundance worked out at 0.947 ± 0.015.
As for METTL2B (UniProt Q6P1Q9), the NP40-soluble protein abundance was 1.009 ± 0.0096.
Same read-out and setting: the same measure for UniProt Q6QNY1 and related entries: 0.984 ± 0.031.
